Data: US10450260B2, “NO- and H2S-releasing compounds” (RESEARCH FOUNDATION OF THE CITY UNIVERSITY OF NEW YORK, priority 2011, dated 2019)
Marks after values point to notes of the source that are not given here.

Legend:
[1] = H2S release, polarographic sensor, homogenized mouse liver; conditions: 100 μM donor, real-time polarographic H2S sensor
[2] = H2S release, polarographic sensor, tissue culture media; conditions: real-time polarographic H2S sensor
HT-29 cells = assay: NO release in culture medium of treated cells; assay type: cell-based, human; conditions: NOSH-1 50 nM

Row | Structure (SMILES) | H2S release, Homogenized mouse liver [1] | H2S release, Tissue culture media [2] | NO release (total NO3−/NO2−) in culture medium (HT-29 cells; 24 hours) [µM] | concentration of NO in the medium compared to untreated cells (HT-29 cells; after 24 hours) [fold] | NO release (total NO3−/NO2−) in culture medium (HT-29 cells; first 15 minutes, base line 4.8 μM) [µM] | NO release (total NO3−/NO2−) in culture medium (HT-29 cells; peak at 6 hours) [µM]
1 | CC(=O)Oc1ccccc1C(=O)Oc1ccc(-c2cc(=S)ss2)cc1 [HS-ASA, 4-(5-thioxo-5H-1,2-dithiol-3-yl)-phenyl 2-acetoxybenzoate, reference compound] | 146 ± 15^a,c μmol/min/g wet weight | 3.5 ± 1.1^c μmol/min | – | – | – | –
2 | O=C(CCCO[N+](=O)[O-])Oc1ccccc1C(=O)Oc1ccc(-c2cc(=S)ss2)cc1 [NOSH-1, 4-(3-thioxo-3H-1,2-dithiol-5-yl)phenyl 2-((4-(nitrooxy)butanoyl)oxy)benzoate] | 57.3 ± 6.4^a,b μmol/min/g wet weight | 8.7 ± 4.4^b μmol/min | 29.1 | 6 | 13.3 | 40.1
